# Assay results reported in PubChem BioAssay AID1347426 (Functional Genomics Laboratory (NCATS/FGL), 2020).
# The whole screen tested about 31,000 sequences, of which about 1,400 (4.5%) were called active.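 How the source made its calls: active means median seed-adjusted z-score above 1 or below -1; inactive means the rest.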 The list shows a part of the results.
# Assay: Novel Modifiers of Survival Motor Neuron (SMN) Protein: Gene Identification via Genome-wide siRNA Screen;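 further: luminescence tracks full-length SMN protein made from the SMN2 reporter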
# Settings: HEK293T SMN2-luciferase reporter, siRNA knockdown, 72 h; actives lie on both sides
# Summary of the method: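 HEK293T cells stably carrying an SMN2 promoter/splicing cassette–luciferase reporter were reverse-transfected with 1 pmol siRNA per well (druggable-genome library, 3 siRNAs per gene) and grown 72 h at 37 °C. Luminescence, normalized to negative-control siRNA and log10-transformed, was scored as MAD.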
row,Sequence,median seed-adjusted z-score
1,GGACUUAUAUAGGGAUGUATT against ZFP14,inactive: 0.263
2,AGUUCACGGUGAUCAGGAATT against ZBTB46,inactive: 0.0546
3,CCAUGUGAGUGUAAGCAGUTT against ZNF490,inactive: 0.00954
4,GGAUCAUGCCUAAUCCACATT against HSD17B7,inactive: 0.0836
5,GCCUAGAGGACUACAAGAATT against FZD8,inactive: -0.177
6,AAGAUGCUCUCCCACCUAATT against POLD4,inactive: 0.225
7,AGAUUUUCAUUAGACCUCUTT against PTGDR,inactive: -0.158
8,GGACUGUAUGUACUUCGAUTT against JAK2,inactive: 0.163
9,UGAUAUUGCUUAGUCCAUUTT against PRLHR,inactive: 0
10,GCAUAGUUGACGAACCUUUTT against NPAS2,inactive: 0.222
11,ACUCCUUUCUGGGUCCUAATT against PTGES,inactive: -0.0851
12,AGUUUCAUUUCAAUAAGUATT against HOXD1,inactive: 0.144
13,GCAUUAAUAACAUUACGUUTT against ZNF236,inactive: 0.683
14,GCCUUAACCGAAUUCCUCATT against LIPA,inactive: 0.535
15,AGCUGUUGAUUGAACAUGATT against LIMK2,inactive: -0.0288
16,GAUACAUCCAUUAUACUUUTT against GNAI1,inactive: -0.233
17,AAAUCUUCGUGAACUUGGATT against MMD,inactive: 0.193
18,AUGCUGAAAUUAUUAGGAATT against UBE2R2,inactive: 0
19,UGAUCUAUACGGCUUUCAATT against HTR5A,inactive: -0.0687
20,GCACCCAACUGAGAUCCGATT against ALPP,inactive: 0
21,GCAUACAUCAUGACCGUCATT against DUSP22,inactive: 0
22,GCCUGGUGCUAAUCCAUAATT against ZNF408,inactive: 0.00381
23,CCAGAGACUUCAUCGUAGATT against ZNF660,inactive: 0.251

row,Sequence,median seed-adjusted z-score
1,UGAGCAUGUUUUCCGAUGATT against HSPB7,inactive: -0.288
2,CAUGUUCAAGGACAACUUUTT against TUBG1,inactive: 0.618
3,GGUCUAUCUUCGAGAAUAATT against SULT6B1,inactive: 0
4,GCCUAGAGGAAAUACAGGATT against DDX50,inactive: 0.359
5,GGAAGUACGUUCCAUACAATT against GALNT17,inactive: 0.392
6,GACCCAAACAGGAACGCAATT against SCN2A,inactive: 0
7,CCCUUAAUUUUGUAACAGATT against SLC7A6,inactive: -0.0877
8,CCAGUGGAGUGGUAUCUAUTT against RBBP5,inactive: 0.169
9,CACGCUUCAUUAAUCAUCATT against ZNF818,inactive: -0.223
10,CCAGCCGUGUUGUAGCUAATT against S100B,inactive: 0.862
11,GUCUACAAAUGGUUUCUUUTT against RNF175,inactive: 0.127
12,ACAACCUCUUAGACACGUATT against QSOX2,inactive: 0.498
13,GGAACACUCAUGACUGUAATT against ZNF426,inactive: 0.2
14,CAAUUAGGAUGACCAUUGATT against GABRE,inactive: 0.211
15,GGAGACGAGUGUAAAAACATT against CPM,inactive: 0.549
16,GAACUACUGCAACUAGACGTT against INS,inactive: 0
17,GCAACUAUCGUACCCAGAUTT against TMED4,inactive: -0.895
18,GGAAAAGCAGAUAACCCAATT against CIB2,inactive: 0.569
19,CAGAGAAACGAGUCUUUAATT against ST6GALNAC5,inactive: -0.0321
20,GGACUCAGACGAGUUUUAUTT against CYP11B1,inactive: -0.199
21,GGUGACCACUCGGACAGUATT against ARVCF,inactive: 0.372
22,GCCUACAUCUUCAAUAGCATT against SPPL3,inactive: 0.652
23,ACAAAGAACUGACCCUGCATT against ZNF296,inactive: -0.00618

# A few values from the list:
# median seed-adjusted z-score, CCCUUAAUUUUGUAACAGATT against SLC7A6 is entered as inactive: -0.0877
# median seed-adjusted z-score, CAGAGAAACGAGUCUUUAATT against ST6GALNAC5 is entered as inactive: -0.0321
# median seed-adjusted z-score, GCCUACAUCUUCAAUAGCATT against SPPL3 is entered as inactive: 0.652

# Continuation.

row,Sequence,median seed-adjusted z-score
1,GGUUCAACUUCUCAACAGATT against GGT5,inactive: 0.307
2,GGUUUGAAAUGCUGCCCAATT against LRRN2,inactive: 0.324
3,GCAUGCUGAUUACAAGAUATT against LEFTY2,inactive: -0.33
4,GAGCUGACGUGUACUCAUATT against USP5,inactive: 0.596
5,GGGCGAAAGUUCACUUAGATT against SMARCA5,inactive: -0.0804
6,CACCGCUACUGGUUGAGAATT against PIP5K3,inactive: 0.00523
7,CCCUUACAGAAGCCCGAUATT against KIF21A,inactive: 0.53
8,CAGAUUCCCUCAGACCUUUTT against MAGED1,inactive: 0.524
9,GCGGUUCCCUAGAGAAUCATT against ARSE,inactive: 0.705
10,CAAGGGUAUUAUUCGAGUUTT against PPP1R3A,inactive: -0.241
11,GCCUCAUGUAAAACCCUAUTT against MYLK,inactive: 0.0226
12,GCCUCUACCUCUUCGAAAATT against CLEC11A,active: -1.1
13,GACCCGCUUUCUACCGUUATT against ENTPD4,inactive: 0.324
14,GGAGGAAUCUCGAAUGCGATT against CNOT1,active: 1.2
15,GACUUAAUCACUAACGAGATT against SULF1,inactive: -0.128
16,CCAGUGCUAUGAGGACAUUTT against CORO1B,inactive: 0.405
17,CACCGACUCUGAGUGUCUATT against KCTD11,inactive: 0.374
18,GGAUGGAAUCUACAGGCUUTT against GUCY2F,inactive: 0.188
19,CUGUCGCUAAUGAAGUAUATT against TRDMT1,inactive: 0
20,CCCUAAAGAUGGUGCGGAATT against DYRK2,inactive: 0
21,GCAUCUCUGCGGUCACCAATT against CACNA1I,inactive: 0.346
22,CCAGUUACGCGUUCCCAUUTT against ZNF479,inactive: -0.269
23,GAACGGCAACCUCUACUUUTT against L1CAM,inactive: 0
